# In the supplement of paper PMC10849652:
# Protein sequences, listed by entry. Tags and fused reporters are not part of them. Lines headed by an entry give the natural chain unless they say otherwise; changes in a name come on top.
# UniProt Q5W0Z9: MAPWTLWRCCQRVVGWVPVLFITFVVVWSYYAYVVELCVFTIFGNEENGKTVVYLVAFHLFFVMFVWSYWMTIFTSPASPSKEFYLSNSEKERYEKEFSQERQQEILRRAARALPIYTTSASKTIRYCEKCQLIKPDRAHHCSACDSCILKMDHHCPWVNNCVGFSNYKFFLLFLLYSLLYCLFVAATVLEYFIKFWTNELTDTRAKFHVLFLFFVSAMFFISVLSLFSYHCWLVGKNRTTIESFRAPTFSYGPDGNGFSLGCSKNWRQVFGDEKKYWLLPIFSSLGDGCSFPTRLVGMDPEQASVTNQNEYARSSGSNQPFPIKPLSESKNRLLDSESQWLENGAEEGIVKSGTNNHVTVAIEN
# UniProt Q13426: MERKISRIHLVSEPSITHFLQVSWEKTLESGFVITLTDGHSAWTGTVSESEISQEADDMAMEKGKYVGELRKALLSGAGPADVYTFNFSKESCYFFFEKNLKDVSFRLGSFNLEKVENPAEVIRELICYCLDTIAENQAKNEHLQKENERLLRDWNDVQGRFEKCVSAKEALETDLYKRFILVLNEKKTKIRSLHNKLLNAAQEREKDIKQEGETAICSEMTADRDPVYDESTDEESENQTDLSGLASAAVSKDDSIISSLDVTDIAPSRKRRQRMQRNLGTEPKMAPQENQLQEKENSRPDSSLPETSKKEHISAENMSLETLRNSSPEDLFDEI
# UniProt Q9UPT8: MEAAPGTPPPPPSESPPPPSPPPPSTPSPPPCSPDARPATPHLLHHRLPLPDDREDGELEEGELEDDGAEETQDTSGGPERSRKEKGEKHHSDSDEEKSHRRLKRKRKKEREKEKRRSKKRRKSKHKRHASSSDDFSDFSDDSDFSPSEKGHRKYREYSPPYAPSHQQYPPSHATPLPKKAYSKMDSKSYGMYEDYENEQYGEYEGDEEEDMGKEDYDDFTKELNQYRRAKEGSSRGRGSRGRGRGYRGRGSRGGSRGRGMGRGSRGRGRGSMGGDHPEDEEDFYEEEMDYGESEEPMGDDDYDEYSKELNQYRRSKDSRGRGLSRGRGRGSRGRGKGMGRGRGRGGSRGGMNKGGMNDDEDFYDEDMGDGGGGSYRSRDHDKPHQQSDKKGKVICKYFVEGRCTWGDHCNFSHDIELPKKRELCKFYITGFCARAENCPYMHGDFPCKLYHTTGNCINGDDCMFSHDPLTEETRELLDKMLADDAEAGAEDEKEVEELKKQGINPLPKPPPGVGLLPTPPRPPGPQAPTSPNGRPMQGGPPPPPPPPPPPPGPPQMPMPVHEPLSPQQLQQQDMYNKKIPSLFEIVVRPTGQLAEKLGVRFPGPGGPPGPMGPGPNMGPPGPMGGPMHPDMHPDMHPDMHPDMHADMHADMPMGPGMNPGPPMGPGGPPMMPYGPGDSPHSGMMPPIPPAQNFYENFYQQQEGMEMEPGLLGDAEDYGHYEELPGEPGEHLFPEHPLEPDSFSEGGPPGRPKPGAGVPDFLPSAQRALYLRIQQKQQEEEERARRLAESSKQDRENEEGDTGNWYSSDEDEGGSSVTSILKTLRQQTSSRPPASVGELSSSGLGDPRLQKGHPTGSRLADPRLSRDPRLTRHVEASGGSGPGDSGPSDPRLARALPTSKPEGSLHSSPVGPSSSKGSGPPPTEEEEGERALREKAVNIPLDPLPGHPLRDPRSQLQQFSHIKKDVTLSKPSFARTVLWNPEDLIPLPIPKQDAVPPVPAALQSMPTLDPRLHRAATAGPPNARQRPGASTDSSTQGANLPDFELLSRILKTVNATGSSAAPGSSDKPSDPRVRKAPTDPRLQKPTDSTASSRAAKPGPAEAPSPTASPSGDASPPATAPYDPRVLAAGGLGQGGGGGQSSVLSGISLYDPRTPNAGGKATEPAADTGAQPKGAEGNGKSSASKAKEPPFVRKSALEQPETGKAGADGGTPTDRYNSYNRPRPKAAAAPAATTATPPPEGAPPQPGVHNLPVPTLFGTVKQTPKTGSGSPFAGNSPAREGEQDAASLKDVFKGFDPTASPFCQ
# UniProt Q9Y5A9: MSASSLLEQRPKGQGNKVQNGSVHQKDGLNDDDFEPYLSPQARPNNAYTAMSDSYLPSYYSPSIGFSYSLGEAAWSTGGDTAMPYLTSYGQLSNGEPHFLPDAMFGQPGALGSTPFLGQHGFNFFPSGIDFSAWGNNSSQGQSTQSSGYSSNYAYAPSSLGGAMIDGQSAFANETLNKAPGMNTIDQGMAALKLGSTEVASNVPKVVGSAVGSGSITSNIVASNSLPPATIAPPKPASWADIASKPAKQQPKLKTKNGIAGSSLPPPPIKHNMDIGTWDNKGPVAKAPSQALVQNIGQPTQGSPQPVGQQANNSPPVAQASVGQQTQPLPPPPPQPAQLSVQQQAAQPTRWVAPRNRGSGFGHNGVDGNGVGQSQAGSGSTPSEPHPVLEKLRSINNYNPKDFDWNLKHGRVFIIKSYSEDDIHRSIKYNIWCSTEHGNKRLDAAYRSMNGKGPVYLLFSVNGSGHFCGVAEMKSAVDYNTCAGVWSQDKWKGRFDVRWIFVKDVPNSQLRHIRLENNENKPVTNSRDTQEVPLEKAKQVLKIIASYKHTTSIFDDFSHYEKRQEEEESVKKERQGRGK
# UniProt Q9C0B5: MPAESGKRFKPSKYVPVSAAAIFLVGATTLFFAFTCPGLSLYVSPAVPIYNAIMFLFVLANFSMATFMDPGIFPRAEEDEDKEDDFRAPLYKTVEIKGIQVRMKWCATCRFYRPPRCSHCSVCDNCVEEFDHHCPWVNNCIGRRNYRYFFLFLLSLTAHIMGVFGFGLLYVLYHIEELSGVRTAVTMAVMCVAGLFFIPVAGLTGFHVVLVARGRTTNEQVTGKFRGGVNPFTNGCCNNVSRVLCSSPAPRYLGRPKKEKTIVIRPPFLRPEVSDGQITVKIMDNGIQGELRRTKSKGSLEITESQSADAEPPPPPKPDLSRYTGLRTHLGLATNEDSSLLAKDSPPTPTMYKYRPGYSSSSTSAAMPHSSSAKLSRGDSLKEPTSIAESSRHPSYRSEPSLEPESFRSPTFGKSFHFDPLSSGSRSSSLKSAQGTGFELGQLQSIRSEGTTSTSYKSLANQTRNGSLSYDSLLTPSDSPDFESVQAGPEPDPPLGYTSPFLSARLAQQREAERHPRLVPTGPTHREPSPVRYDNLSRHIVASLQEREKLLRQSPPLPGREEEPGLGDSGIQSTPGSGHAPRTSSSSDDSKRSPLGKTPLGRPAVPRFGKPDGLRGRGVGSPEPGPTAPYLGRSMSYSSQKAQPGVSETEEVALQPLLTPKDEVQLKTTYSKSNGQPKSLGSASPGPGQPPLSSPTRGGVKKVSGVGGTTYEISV
# UniProt O95159: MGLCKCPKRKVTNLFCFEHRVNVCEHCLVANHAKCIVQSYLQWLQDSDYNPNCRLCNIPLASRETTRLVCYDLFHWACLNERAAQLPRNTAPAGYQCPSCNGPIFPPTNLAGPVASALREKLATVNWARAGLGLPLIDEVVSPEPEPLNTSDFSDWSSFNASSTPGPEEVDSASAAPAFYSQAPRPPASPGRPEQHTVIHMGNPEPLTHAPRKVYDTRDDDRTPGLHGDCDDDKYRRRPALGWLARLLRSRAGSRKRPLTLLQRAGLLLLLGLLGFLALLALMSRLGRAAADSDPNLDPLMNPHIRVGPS
# UniProt Q96TA2: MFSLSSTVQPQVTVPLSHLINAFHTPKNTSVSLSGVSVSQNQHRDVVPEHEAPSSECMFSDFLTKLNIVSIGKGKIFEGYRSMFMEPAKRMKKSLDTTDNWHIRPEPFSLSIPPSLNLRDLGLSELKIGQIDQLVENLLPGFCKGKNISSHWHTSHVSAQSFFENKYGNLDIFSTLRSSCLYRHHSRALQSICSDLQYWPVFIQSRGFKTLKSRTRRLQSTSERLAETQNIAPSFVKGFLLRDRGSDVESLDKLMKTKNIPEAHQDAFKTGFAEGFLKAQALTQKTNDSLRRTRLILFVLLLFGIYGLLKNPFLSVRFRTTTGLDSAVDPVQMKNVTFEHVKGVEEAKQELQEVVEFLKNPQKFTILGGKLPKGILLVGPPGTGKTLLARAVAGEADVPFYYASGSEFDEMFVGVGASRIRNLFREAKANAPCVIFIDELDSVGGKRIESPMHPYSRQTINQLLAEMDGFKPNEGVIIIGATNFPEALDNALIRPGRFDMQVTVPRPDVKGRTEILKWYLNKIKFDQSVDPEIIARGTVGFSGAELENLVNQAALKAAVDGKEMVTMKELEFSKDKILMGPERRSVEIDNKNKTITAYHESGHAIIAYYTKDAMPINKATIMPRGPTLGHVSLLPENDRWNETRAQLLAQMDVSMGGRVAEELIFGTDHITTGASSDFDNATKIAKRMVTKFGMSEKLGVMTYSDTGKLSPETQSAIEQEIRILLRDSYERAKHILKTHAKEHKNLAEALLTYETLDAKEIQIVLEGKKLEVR
# UniProt O15498: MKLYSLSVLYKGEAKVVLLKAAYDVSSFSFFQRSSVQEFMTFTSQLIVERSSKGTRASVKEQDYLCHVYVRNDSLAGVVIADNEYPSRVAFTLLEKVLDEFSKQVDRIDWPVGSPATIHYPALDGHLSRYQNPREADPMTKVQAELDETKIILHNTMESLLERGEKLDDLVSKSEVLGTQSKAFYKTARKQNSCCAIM
# UniProt Q9UBH6: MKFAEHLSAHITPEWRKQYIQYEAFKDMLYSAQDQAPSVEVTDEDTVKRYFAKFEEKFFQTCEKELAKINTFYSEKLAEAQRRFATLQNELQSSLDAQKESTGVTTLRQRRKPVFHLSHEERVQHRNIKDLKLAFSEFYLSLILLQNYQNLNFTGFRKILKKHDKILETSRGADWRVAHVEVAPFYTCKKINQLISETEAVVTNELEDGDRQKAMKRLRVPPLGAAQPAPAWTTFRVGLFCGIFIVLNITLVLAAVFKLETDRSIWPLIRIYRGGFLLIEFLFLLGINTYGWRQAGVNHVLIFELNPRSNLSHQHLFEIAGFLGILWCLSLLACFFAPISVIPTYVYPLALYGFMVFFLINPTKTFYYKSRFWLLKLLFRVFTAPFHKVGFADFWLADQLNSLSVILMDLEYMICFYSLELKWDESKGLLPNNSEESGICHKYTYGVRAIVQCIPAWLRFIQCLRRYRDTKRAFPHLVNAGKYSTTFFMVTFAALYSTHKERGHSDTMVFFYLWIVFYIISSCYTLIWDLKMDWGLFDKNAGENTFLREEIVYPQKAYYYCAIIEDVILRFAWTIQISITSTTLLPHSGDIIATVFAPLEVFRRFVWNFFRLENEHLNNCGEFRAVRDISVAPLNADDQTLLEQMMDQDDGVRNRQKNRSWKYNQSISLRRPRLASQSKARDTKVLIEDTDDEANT
# UniProt O76080: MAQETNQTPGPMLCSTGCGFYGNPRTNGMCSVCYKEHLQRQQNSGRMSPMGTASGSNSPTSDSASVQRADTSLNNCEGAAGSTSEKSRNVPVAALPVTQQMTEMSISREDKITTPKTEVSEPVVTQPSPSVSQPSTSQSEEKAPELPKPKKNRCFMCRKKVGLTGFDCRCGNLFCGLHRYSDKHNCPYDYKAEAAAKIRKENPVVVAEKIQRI
# UniProt O14980, whole entry, looked up: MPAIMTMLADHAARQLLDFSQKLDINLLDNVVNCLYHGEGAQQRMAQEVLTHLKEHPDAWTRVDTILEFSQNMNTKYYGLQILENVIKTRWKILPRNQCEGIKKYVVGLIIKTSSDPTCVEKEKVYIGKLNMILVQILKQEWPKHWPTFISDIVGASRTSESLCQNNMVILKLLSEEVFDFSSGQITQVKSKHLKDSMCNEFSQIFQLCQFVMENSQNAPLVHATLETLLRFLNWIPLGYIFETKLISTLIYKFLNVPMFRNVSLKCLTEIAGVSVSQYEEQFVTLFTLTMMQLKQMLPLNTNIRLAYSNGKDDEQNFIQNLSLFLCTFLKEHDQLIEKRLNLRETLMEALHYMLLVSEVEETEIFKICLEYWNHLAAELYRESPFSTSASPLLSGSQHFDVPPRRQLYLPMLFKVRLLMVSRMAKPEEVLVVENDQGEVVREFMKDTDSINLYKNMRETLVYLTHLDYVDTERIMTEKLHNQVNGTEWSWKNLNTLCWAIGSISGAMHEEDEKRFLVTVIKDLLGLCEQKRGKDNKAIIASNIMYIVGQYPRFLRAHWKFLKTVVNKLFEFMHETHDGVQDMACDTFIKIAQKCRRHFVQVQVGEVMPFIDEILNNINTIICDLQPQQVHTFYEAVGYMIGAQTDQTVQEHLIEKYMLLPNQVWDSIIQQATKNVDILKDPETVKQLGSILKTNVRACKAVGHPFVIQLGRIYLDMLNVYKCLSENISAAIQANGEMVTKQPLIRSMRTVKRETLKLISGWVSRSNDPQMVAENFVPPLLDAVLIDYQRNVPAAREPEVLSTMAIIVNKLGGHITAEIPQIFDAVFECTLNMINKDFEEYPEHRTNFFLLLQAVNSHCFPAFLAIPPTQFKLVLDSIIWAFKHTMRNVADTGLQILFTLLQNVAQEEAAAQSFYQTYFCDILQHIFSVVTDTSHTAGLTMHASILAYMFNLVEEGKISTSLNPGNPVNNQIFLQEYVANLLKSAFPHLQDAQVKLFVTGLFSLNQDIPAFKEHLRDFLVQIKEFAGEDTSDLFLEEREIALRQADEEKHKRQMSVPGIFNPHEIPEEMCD
# Some of the results follow.
# Compound: Cc1sc2c(c1C)C(c1ccc(Cl)cc1)=N[C@@H](CC(=O)OC(C)(C)C)c1nnc(C)n1-2
# Assay: log2 fold change, soluble protein after heating vs DMSO (PISA); higher = thermal stabilisation; K562 cells, 10 uM, 30 min; active = over 0.2 and 3.5 SD of the protein, either way, in both replicates (recomputed)
# How it was run: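 K562 cells (2×10^6 cells/mL) were treated with 10 μM compound for 30 min, and aliquots were heated for 3 min over 48°C-58°C. Pooled aliquots were extracted in PBS with 0.5% NP-40 at 4°C, and the supernatant after 21,000xg for 90 min was measured by TMTpro 16plex LC-MS/MS with channel sums equalised. Reported thermal stability, relative to control samples and from duplicates, is a log2 fold change.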
row,Target,log2 fold change
1,YAE1 (UniProt Q9NRH1),inactive: -0.014
2,ZDHHC20 (UniProt Q5W0Z9),inactive: -0.061
3,YTHDF3 (UniProt Q7Z739),inactive: -0.007
4,XXYLT1 (UniProt Q8NBI6),inactive: -0.017
5,XRCC4 (UniProt Q13426),inactive: -0.013
6,ZC3H4 (UniProt Q9UPT8),inactive: 0.064
7,ZFYVE1 (UniProt Q9HBF4),inactive: 0.011
8,YTHDF2 (UniProt Q9Y5A9),inactive: -0.014
9,YEATS4 (UniProt O95619),inactive: 0.045
10,ZDHHC5 (UniProt Q9C0B5),inactive: -0.013
11,XRN2 (UniProt Q9H0D6),inactive: 0.056
12,ZBTB43 (UniProt O43298),inactive: -0.097
13,ZFPL1 (UniProt O95159),inactive: -0.042
14,ZDHHC14 (UniProt Q8IZN3),inactive: 0.023
15,YME1L1 (UniProt Q96TA2),inactive: 0.048
16,YKT6 (UniProt O15498),inactive: -0.001
17,XRCC5 (UniProt P13010),inactive: 0
18,XPR1 (UniProt Q9UBH6),inactive: 0.001
19,ZFAND5 (UniProt O76080),inactive: -0.024
20,ZBTB21 (UniProt Q9ULJ3),inactive: 0.244
21,YBX3 (UniProt P16989),inactive: 0.196
22,ZNF143 (UniProt P52747),inactive: 0.064
23,YES1 (UniProt P07947),inactive: -0.005
24,XPO1 (UniProt O14980),inactive: -0.011

# In a second layout: results already given
row | Target | log2 fold change
11 | XRN2 (UniProt Q9H0D6) | inactive: 0.056
12 | ZBTB43 (UniProt O43298) | inactive: -0.097
